# Values from PubChem BioAssay AID652243 (Drosophila RNAi Screening Center, 2013)
# Test: 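Fly regulators of androgen-dependent reporter output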 (primary screen)
# Cell system: Drosophila S2R+ cells
# Reagents: long dsRNA against Drosophila genes
# Duration: 72 h (48 h, then 24 h hormone)
# Treatment: synthetic androgen R1881 at 10 nM for 24 h
# Measurement: 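Firefly light from an androgen-responsive reporter and Renilla control light per well, raw and unnormalised, for each of two replicates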
# Direction: firefly reporter light: higher = more light from androgen-responsive reporter; Renilla control light: higher = more constitutive control signal (cell number, transfection)
# Active means: 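Across duplicate plates, a knock-down whose log firefly/Renilla ratio shifted a set fold down or up from the GFP/LacZ control mean was a hit; the downward cut appears as both 1.5 and 3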
# Meaning of the calls: active = hit: reporter lowered or raised; inactive = no hit
# The screen tested about 24,000 reagents; below is a random part of those that have a named target and a result. Of all reagents, 246 (1%) were called active. 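Plates not normalised; calls are printed but the firefly/Renilla ratio behind them is not deposited; fold cut for lowering reported inconsistently.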 Raw values vary from plate to plate and are shown uncorrected. The record does not give: the amount of reagent.
The opening 7 entries, to show the layout:
predicted target,amplicon,"firefly reporter light, replicate 1","firefly reporter light, replicate 2","Renilla control light, replicate 1","Renilla control light, replicate 2",call
Su(var)2-HP2,DRSC06204,1.35e6,4.78e5,1.81e6,6.08e5,inactive
Su(var)2-HP2,DRSC29542,4.25e5,5.79e5,5.59e5,5.59e5,inactive
mars,DRSC06656,1.65e5,4.04e5,1.76e6,2.00e6,inactive
l(1)G0020 (lethal (1) G0020),DRSC18198,3.11e5,3.52e5,3.91e6,2.84e6,inactive
qm (quemao),DRSC11386,1.83e5,1.50e5,1.98e6,2.28e6,inactive
qm (quemao),DRSC26597,2.23e5,1.87e5,6.91e5,4.96e5,inactive
CG10681,DRSC09777,9.05e5,7.21e5,8.55e5,1.45e6,inactive

Results, from the start:
predicted target,amplicon,"firefly reporter light, replicate 1","firefly reporter light, replicate 2","Renilla control light, replicate 1","Renilla control light, replicate 2",call
Su(var)2-HP2,DRSC06204,1.35e6,4.78e5,1.81e6,6.08e5,inactive
Su(var)2-HP2,DRSC29542,4.25e5,5.79e5,5.59e5,5.59e5,inactive
mars,DRSC06656,1.65e5,4.04e5,1.76e6,2.00e6,inactive
l(1)G0020 (lethal (1) G0020),DRSC18198,3.11e5,3.52e5,3.91e6,2.84e6,inactive
qm (quemao),DRSC11386,1.83e5,1.50e5,1.98e6,2.28e6,inactive
qm (quemao),DRSC26597,2.23e5,1.87e5,6.91e5,4.96e5,inactive
CG10681,DRSC09777,9.05e5,7.21e5,8.55e5,1.45e6,inactive
CG10681,DRSC21484,8.89e5,6.96e5,3.08e6,2.44e6,inactive
CG10681,DRSC27329,2.61e5,3.02e5,6.07e5,7.43e5,inactive
CG13251,DRSC11699,2.01e5,1.37e5,1.86e6,1.64e6,inactive
CG13251,DRSC27385,2.73e5,3.24e5,3.90e5,3.76e5,inactive
ftz-f1 (ftz transcription factor 1),DRSC25015,7.52e5,4.76e5,4.99e5,6.01e5,inactive
ftz-f1 (ftz transcription factor 1),DRSC37552,7.11e5,5.48e5,2.22e6,1.47e6,inactive
Qtzl (Quetzalcoatl),DRSC01221,1.57e5,2.97e5,9.53e5,8.21e5,inactive
CG14495,DRSC06466,85296,65607,1.59e6,1.59e6,inactive
CG16888,DRSC02541,1.81e5,1.68e5,1.35e6,1.36e6,inactive
CG42542,DRSC15549,34028,1.09e5,2.61e5,7.24e5,inactive
CG42542,DRSC22264,5.76e5,6.94e5,2.00e6,1.88e6,inactive
CG42542,DRSC26522,1.97e5,2.18e5,6.68e5,6.67e5,inactive
CG42542,DRSC26676,2.65e5,3.28e5,7.56e5,7.47e5,inactive
Oct-TyrR (Octopamine-Tyramine receptor),DRSC11883,2.62e5,2.08e5,2.17e6,2.69e6,inactive
CG9646,DRSC07342,94449,60183,1.50e6,1.50e6,inactive
MFS9 (Major Facilitator Superfamily Transporter 9),DRSC15560,90620,94500,9.69e5,8.40e5,inactive
vn (vein),DRSC23221,6.28e5,6.61e5,8.48e5,9.83e5,inactive
vn (vein),DRSC26550,3.36e5,3.87e5,3.68e5,4.65e5,inactive
CG15571,DRSC18059,2.34e5,1.71e5,2.42e6,2.30e6,inactive
CG15571,DRSC30098,1.45e6,2.00e6,1.24e6,1.17e6,inactive
dom (domino),DRSC04558,8.45e5,5.91e5,1.56e6,2.48e6,inactive
dom (domino),DRSC04559,1.60e5,1.29e5,1.43e6,1.04e6,inactive
dom (domino),DRSC29669,5.05e5,5.92e5,6.48e5,6.48e5,inactive
bab2 (bric a brac 2),DRSC08150,26219,30523,7.55e5,6.56e5,inactive
bab2 (bric a brac 2),DRSC26326,3.41e5,3.30e5,5.63e5,5.38e5,inactive
CG33191,DRSC27362,2.65e5,2.62e5,5.44e5,7.79e5,inactive
CG7246,DRSC18422,4.08e5,3.41e5,2.98e6,3.01e6,inactive
Su(var)205 (Suppressor of variegation 205),DRSC03446,7.77e5,7.07e5,2.04e6,2.05e6,inactive
CG6118,DRSC23197,3.18e5,3.70e5,1.62e6,1.63e6,inactive
CG6118,DRSC29922,7.45e5,4.75e5,1.50e6,1.51e6,inactive
CG33998,DRSC05747,6.31e5,6.63e5,9.37e5,7.08e5,inactive
TTLL6B (Tubulin tyrosine ligase-like 6B),DRSC15932,2.41e5,1.80e5,2.14e6,1.99e6,inactive
TTLL6B (Tubulin tyrosine ligase-like 6B),DRSC26754,3.79e5,2.61e5,3.88e5,2.35e5,inactive
CG5989,DRSC10565,8.63e5,7.32e5,1.07e6,8.51e5,inactive
CG34303,DRSC38692,1.07e6,9.10e5,1.98e6,2.31e6,inactive
ppk23 (pickpocket 23),DRSC20110,6.14e5,4.78e5,3.24e6,2.69e6,inactive
ppk23 (pickpocket 23),DRSC26441,2.37e5,2.87e5,5.09e5,6.08e5,inactive
CG13653,DRSC14653,1.13e5,1.31e5,1.85e6,1.79e6,inactive
"Rgk3 (Rad, Gem/Kir family member 3)",DRSC04250,3.95e5,3.85e5,2.98e6,2.55e6,inactive
"Rgk3 (Rad, Gem/Kir family member 3)",DRSC04254,2.23e5,1.96e5,1.78e6,1.88e6,inactive
"Rgk3 (Rad, Gem/Kir family member 3)",DRSC04255,3.81e5,4.36e5,2.95e6,2.19e6,inactive
"Rgk3 (Rad, Gem/Kir family member 3)",DRSC28131,4.37e5,4.62e5,2.03e6,1.75e6,inactive
alka (alkaliphile),DRSC06136,2.00e5,1.53e5,1.49e6,1.34e6,inactive
CG3557,DRSC00614,8.58e5,8.15e5,3.25e6,2.02e6,inactive
Acbp5 (Acyl-CoA binding protein 5),DRSC10548,2.78e5,2.26e5,2.78e6,2.61e6,inactive
CG17129,DRSC08508,5.36e5,7.97e5,8.75e5,9.30e5,inactive
CG14238,DRSC14732,1.22e5,1.61e5,1.61e6,1.64e6,inactive
CG14238,DRSC29545,4.44e5,5.78e5,8.42e5,8.42e5,inactive
I-t (inhibitor-t),DRSC16713,1.35e5,1.14e5,2.66e6,2.85e6,inactive
I-t (inhibitor-t),DRSC36766,,,,,inactive
Poxm (Pox meso),DRSC16793,4.13e5,3.74e5,2.66e6,2.35e6,inactive
Poxm (Pox meso),DRSC22839,5.16e5,1.07e6,9.57e5,1.79e6,inactive
CG30275,DRSC04163,3.22e5,3.61e5,2.48e6,1.97e6,inactive
CG16826,DRSC02527,2.16e5,2.24e5,1.24e6,1.30e6,inactive
Bmcp,DRSC10808,6.95e5,5.61e5,1.05e6,9.09e5,inactive
CG8245,DRSC04901,4.49e5,7.65e5,1.17e6,2.13e6,inactive
tum (tumbleweed),DRSC07575,1.11e5,1.11e5,2.06e6,2.06e6,inactive
CG4741,DRSC04485,2.41e5,2.34e5,1.49e6,1.70e6,inactive
CG4741,DRSC25673,9.50e5,1.03e6,1.49e6,1.67e6,inactive
cyp33 (cyclophilin-33),DRSC07600,1.44e6,1.58e6,2.76e6,3.23e6,inactive
mei-W68 (meiotic W68),DRSC07649,45979,98908,4.62e5,8.97e5,inactive
CG7632,DRSC11842,1.89e5,2.35e5,1.93e6,2.51e6,inactive
Zip42C.2 (Zinc/iron regulated transporter-related protein 42C.2),DRSC05004,4.48e5,3.81e5,2.19e6,2.09e6,inactive
Zip42C.2 (Zinc/iron regulated transporter-related protein 42C.2),DRSC26644,3.82e5,3.19e5,1.00e6,8.69e5,inactive
Zip42C.2 (Zinc/iron regulated transporter-related protein 42C.2),DRSC39021,7.96e5,8.70e5,1.44e6,1.57e6,inactive
Acbp6 (Acyl-CoA binding protein 6),DRSC10217,2.44e5,1.60e5,2.84e6,3.98e6,inactive
sac (sterile affecting ciliogenesis),DRSC12237,75623,1.13e5,2.19e6,1.80e6,inactive
sac (sterile affecting ciliogenesis),DRSC27045,4.38e5,3.01e5,7.19e5,6.98e5,inactive
